In patent publication US10168342B2, “Lipid probes and uses thereof” (THE SCRIPPS RESEARCH INSTITUTE, priority 2015, dated 2019):

Columns and labels:
[1] = system: sterol-binding proteins in HeLa cells; experiment: SILAC MS-based profiling of sterol-binding proteins in HeLa cells; format: cell-based, human
[2] = system: lipid-binding proteins in HEK293T cells; experiment: SILAC MS mapping of lipid probe targets (probe-versus-No UV, probe-versus-probe) in HEK293T cells; format: cell-based, human; conditions: HEK293T and Neuro2a cells combined

C#CCCCCOC(=O)CC[C@@H](C)[C@H]1CCC2C3CC4(N=N4)[C@H]4C[C@@H](O)CC[C@]4(C)C3CC[C@@]21C (stereo partly drawn) [trans-sterol probe, (4R)-hex-5-yn-1-yl 4-((3S,5S,10R,13R,17R)-3-hydroxy-10,13-dimethyl-1,2,3,4,5,7,8,9,10,11,12,13,14,15,16,17-hexadecahydrospiro[cyclopenta[a]phenanthrene-6,3′-diazirin]-17-yl)pentanoate]
number of proteins with ≥3-fold higher signals for trans-sterol probe over PEA-DA ([1]; 20 μM each): about 700 | number of sterol-interacting proteins (SILAC ratios ≥5 vs vehicle and no-UV) ([1]; probe 20 μM): About 850

C#CCCC/C=C\C/C=C\C/C=C\C/C=C\CCCC(=O)NCCC1(C)N=N1 [A-DA, (5Z,8Z,11Z,14Z)-N-(2-(3-methyl-3H-diazirin-3-yl)ethyl)icosa-5,8,11,14-tetraen-19-ynamide]
number of probe-specific targets [2]: 317

C#CCCCC1(CC/C=C\C/C=C\C/C=C\CCCC(=O)NCCO)N=N1 [AEA-DA, (5Z,8Z,11Z)-N-(2-hydroxyethyl)-14-(3-(pent-4-yn-1-yl)-3H-diazirin-3-yl)tetradeca-5,8,11-trienamide]
number of probe-specific targets [2]: 442

CC(C)CCC[C@@H](C)[C@H]1CC[C@H]2[C@@H]3CC=C4C[C@@H](O)CC[C@]4(C)[C@H]3CC[C@]12C [cholesterol, reference compound]
number of proteins with at least a 50% decrease in trans-sterol probe labeling intensity ([1]; trans probe 10 μM, cholesterol 100 μM (10×)): about 300
